The data set in a line: peptide synthesis. To be noted: purification step, diacetate.

Consider one substance from patent US9828411 (dated 2017).

With caspofungin, the “final HPLC purity” value (Rel. Area) is recorded as 98.43%. In addition, the step yield runs as follows: (based on yield and input before column step) 94.7%; (overall over both runs) 96.2%.
